For one assay, the target named is T1, Ubp6-TAP (S. pombe) (UniProt Q92353).
T1 sequence: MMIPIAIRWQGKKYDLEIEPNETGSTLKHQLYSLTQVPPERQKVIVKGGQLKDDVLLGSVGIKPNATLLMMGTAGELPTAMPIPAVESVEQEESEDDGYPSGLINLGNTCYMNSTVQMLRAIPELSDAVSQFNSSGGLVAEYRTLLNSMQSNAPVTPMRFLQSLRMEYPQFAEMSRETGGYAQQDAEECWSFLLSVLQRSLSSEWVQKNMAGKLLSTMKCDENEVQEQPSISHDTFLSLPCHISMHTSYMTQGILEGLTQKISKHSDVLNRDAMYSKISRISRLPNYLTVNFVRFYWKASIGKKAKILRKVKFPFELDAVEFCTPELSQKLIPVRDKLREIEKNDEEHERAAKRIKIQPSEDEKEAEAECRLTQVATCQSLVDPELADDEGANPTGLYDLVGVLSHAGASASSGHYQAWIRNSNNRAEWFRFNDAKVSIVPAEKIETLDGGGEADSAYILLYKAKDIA
Put plainly: affinity purification with mass spectrometry; bait endogenously TAP-tagged at its C-terminus, tandem affinity purification from native S. pombe lysate, co-purified proteins identified by 2D LC-MS/MS; duplicates, only proteins found in both replicates.

The target of another assay is T2, Bun62-TAP (S. pombe) (UniProt Q10437).
T2 sequence: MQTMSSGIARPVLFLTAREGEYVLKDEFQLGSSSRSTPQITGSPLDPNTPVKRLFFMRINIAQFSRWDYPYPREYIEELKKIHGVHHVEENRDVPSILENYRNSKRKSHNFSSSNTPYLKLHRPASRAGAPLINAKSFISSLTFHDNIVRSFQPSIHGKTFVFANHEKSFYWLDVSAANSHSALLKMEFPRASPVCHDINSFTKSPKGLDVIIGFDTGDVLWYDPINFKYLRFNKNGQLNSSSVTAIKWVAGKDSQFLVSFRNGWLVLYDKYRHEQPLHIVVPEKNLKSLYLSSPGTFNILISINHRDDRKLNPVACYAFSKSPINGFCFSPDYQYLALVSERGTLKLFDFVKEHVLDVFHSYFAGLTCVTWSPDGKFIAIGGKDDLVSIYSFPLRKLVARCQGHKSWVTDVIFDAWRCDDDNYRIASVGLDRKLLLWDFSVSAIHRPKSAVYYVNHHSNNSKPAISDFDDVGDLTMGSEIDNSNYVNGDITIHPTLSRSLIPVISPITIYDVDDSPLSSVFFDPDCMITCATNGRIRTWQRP
The description is as above.

No constants are given. Whether binding was seen depends on the method and setting. Binding seen in cells or lysates may run through a third protein. A yes stands for co-enrichment or nearness to the bait. Other partners may have been found.

B1: Rpn1/Mts4 (protein, UniProt P87048 1-891)
chain: MSSKDISSKSPSGNDALNDKKGTKTSETNDRNSTNNTKERDELEDLSEEDLQLKNDLELLVQAVQDATPELVGSSLTQLKEIIRTSTSSMTAVPKPLKFLRPHYFTLVKIYDSWPQSPQKTQLADILSVLGMSYSNTSKHESLKYRLQGVTTDPSLWGHEYVRHLASEIEEEFASRQEEEAPTDDLMELALTIVPFFLTHNAEADAIDLLQELGAIEKVVPFVELDNASRVCLYITSCVNLLPFPEDVAMLRTAHAIYRKFDQLTQALNVAIRLDDMSLIKEDCEAATDPLLKKQMSYMLARQQIPMDMGDEELNDALNNTHLSDHFHYLGKELNLMDPKVPEDIFKTHLEVARTGLGASGVYSAKQNLANTFVNALVNAGYSNDRLILVDDEKTSWIYKNKESGLISATASIGLLQLWNVDMGLSLLDKYLYSSEENTKAGALLGIGVTNVAVRNEADPAMAILSEYLETGSVKLRASAILGLGLAYSGANREDLLDMLSPIVTDTDCPMQLSCLAALSLGLIFVGTCNGDVASTILQTLMEREESAQNDQWGRFMALGLALLFNGKQDLADATVETLKAIEGKIARQAEILVDICSYAGTGNVLHIQKLLHICSEPPSDDAKESETTIQTFAALGVATIAMGEDIGAEMVLRHFDHMMHYGEPSIRKAIPLALGLLSASNPQMRIFDTLSRYSHDNDLDVAYNAIFAMGLVGAGTSNARLAQLLRQLASYYHKESNALFMVRIAQGLLYLGKGTMTLNPYHTERQILGQTAFAGLMTVVLAMLDANTFVLDTSHWLLYAITLAIRPRMLITLGEDGQYLPVSVRVGQAVDVVGQAGRPKVITGWVTHTTPVLLHHNERAELATEAYTPLTSLEGIVILKKNTEDIEMTA
For the molecule B1, the binding result with Ubp6-TAP (S. pombe) is listed as “binds”.

B2: Ubp9 (enzyme, UniProt Q9P7V9 1-585)
chain: MSLLRWMGMNSPGSTDRRKSTWEAELPKPSIRPETLTDRFYGLTNYGNTCYVSSVLVSLYHLKPFRDSLNSYPLPSAPPNFKSVCTKTNHPESSSSRHSKKKSMENRKSSLYGSNGINSCGCVDISNVGSESGTKHQIVVGESNCSAYGMKENIYTCLKDLYCSVSCCDCRYGICSPERFIQVLRRDNEAFRSTQQQDAHEFFNFLLNSVTETLDEYYGNHSDVMHPKWVHSLFEGTLTSETKCLTCENITSRDESFLDLSIDIENHTSVTSCLRSFSASEMLSSKNKFHCDVCKSLQEAEKRMKIKKLPKILSLHLKRFKYNETQEGHDKLFYTIVFTNEMRLFTTTEDAENAERMYYLSSVIVHVGGGPHRGHYVSIVRTKTYGWVLFDDENVTPVNENYLQRFFGDQPGQATAYVLFYTAADEEDDDVSEVDTKESIKPMSIPSQLKQESVEVSNLSSTPRSNSTITYPDMDPMVASFSSQYSHKTLDRDINSRSYFDREPSLDAERFHSRSVDASPKAVRRESRSFFPSLTRKRSKFFGSSQSNSPKDSPLRDTHKSSDEHSESKHSHTLPWQFSRSRSKR
Regarding B2, the binding result with Bun62-TAP (S. pombe) was “binds”.

Source of the values: PMC2935449.
